Assay results as given in PubChem BioAssay AID1487 (National Center for Advancing Translational Sciences (NCATS), 2009).
The other results are listed elsewhere or left out. The main result of the screen is listed elsewhere. These columns were measured beside it and carry no call. Most of these compounds were active or inconclusive in the main read-out, so they are no random draw. Potencies come from curve fits of mixed quality, noted in brackets.

Test: qHTS Assay for Modulators of Lamin A Splicing
Conditions: HeLa LMNA splicing GFP/RFP minigene ratio, 48 h
How it was run: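 S3 HeLa cells stably expressing lamin A-EGFP splicing minigene plus DsRed2, 600 cells/well, 48 h compound exposure at 37C. Laser-scanning cytometry; analysed as GFP (500-530 nm)/RFP (575-640 nm) total intensity ratio; 0.5% DMSO vehicle.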

[1] = measured here: GFP splicing reporter channel
[2] = measured here: RFP viability control channel

SMILES | AC50 [1] | AC50 [2]
COc1cc2c(cc1NC(=O)COC(=O)[C@@H](NS(=O)(=O)c1cccc(Cl)c1)C(C)C)oc1ccccc12 | 10 µM [rising, partial curve, poor fit] | 12.6 µM [rising, partial curve, poor fit]
CN(C)c1ccc(-c2nc(NC3CCNCC3)c3ccccc3n2)cc1 | 35.5 µM [falling, single point] | 35.5 µM [falling, single point]
CCOC(=O)n1c(=O)oc2cc(S(=O)(=O)N3CCCCC3)ccc21 |  | 17.8 µM [rising, single point]
O=c1[nH]nc(CNc2ccc(Cl)cc2Cl)c2ccccc12 |  | 0.316 µM [falling, partial curve, poor fit]
C=CCc1cccc(C=Nc2cc(Br)ccc2O)c1O |  | 1.41 µM [rising, partial curve]
NC(=O)[C@@H]1CCCN1Cc1nc(-c2cccs2)no1 |  | 0.0708 µM [falling, full curve, poor fit]
O=C1CCCc2cc(S(=O)(=O)NCC3CCC(C(=O)NCc4ccccc4Cl)CC3)ccc2N1 (stereo not given) | 0.01 µM [falling, full curve, poor fit] | 0.00501 µM [falling, full curve, poor fit]
COc1ccccc1N1CCN(C(=O)c2c(C)oc3ncn(CC(C)C)c(=O)c23)CC1 | 3.98 µM [rising, partial curve, poor fit] | 5.01 µM [rising, single point]
Cn1c(NC(=O)/C=C/c2ccc(Cl)c(Cl)c2)cc(=O)n(C)c1=O | 15.8 µM [rising, partial curve, poor fit] | 10 µM [rising, partial curve, poor fit]
CCN(CC)S(=O)(=O)c1cccc(C(=O)Nc2cc3oc4ccccc4c3cc2OC)c1 |  | 5.62 µM [rising, single point]
Cc1ccc2cc(C#N)c(N3CCCN(C(=O)C4CCCO4)CC3)nc2c1C (stereo not given) | 14.1 µM [rising, single point] | 17.8 µM [rising, single point]
Cc1ccc2cccc(Oc3ccc([N+](=O)[O-])cc3[N+](=O)[O-])c2n1 | 15.8 µM [rising, partial curve, poor fit] | 
COc1cc(C2C(=O)N(C3CCCCC3)CC(=O)N2CCC2=CCCCC2)ccc1OC(C)C (stereo not given) |  | 0.251 µM [falling, full curve, poor fit]
CC(C)N(C(=O)Cc1ccccc1[N+](=O)[O-])C(C)C | 3.16 µM [rising, full curve, poor fit] | 
O=C(CCCNS(=O)(=O)c1cccs1)N1CCN(c2cccc(Cl)c2)CC1 | 35.5 µM [rising, single point] | 35.5 µM [rising, single point]
Cc1ccnc(NS(=O)(=O)c2ccc(NC(=O)Cc3ccccc3)cc2)n1 |  | 0.355 µM [rising, partial curve, poor fit]
Cc1ccccc1NCC(=O)N/N=C/C(Br)=C/c1ccccc1 |  | 6.31 µM [rising, partial curve]
Cc1cccc(CSc2ccc3nnc(-c4ccccn4)n3n2)c1 |  | 0.0224 µM [rising, full curve]
COc1cc(N/N=C(\C)c2ccc(O)c(C)c2)nc(-c2ccccc2)n1 | 12.6 µM [falling, partial curve] | 7.94 µM [falling, partial curve]
Cc1cccc(Nc2nnc(SCC(=O)Nc3cccc(S(=O)(=O)N4CCCCC4)c3)s2)c1 |  | 25.1 µM [rising, single point]
O=C(O)c1cccc(N=NN2CCOCC2)c1 | 5.62 µM [falling, partial curve] | 17.8 µM [falling, partial curve, poor fit]
CCOC(=O)c1c(-c2ccc(-c3ccccc3)cc2)csc1NC(=O)CCN1CCOCC1 |  | 15.8 µM [rising, single point]
Cc1cc(C)cc(NC(=O)C2CCN(S(=O)(=O)c3cccc(-c4noc(C)n4)c3)CC2)c1 | 7.94 µM [falling, partial curve] | 2 µM [falling, partial curve]
Cc1ccc(CNC(=O)CCCN2C(=O)COc3ccc(C)cc32)cc1 | 5.62 µM [rising, single point] | 
Cc1cccc(NC(=O)C(=O)NCCc2csc(-c3ccc(C(F)(F)F)cc3)n2)c1C |  | 0.316 µM [falling, full curve]
COC(=O)c1ccncc1C(=O)Nc1ccc(OC)cc1 |  | 0.00501 µM [falling, full curve, poor fit]
CC(C)C(C(=O)O)N1C(=O)/C(=C/C=C/c2ccco2)SC1=S (stereo not given) | 14.1 µM [rising, single point] | 

SMILES | AC50 [1] | AC50 [2]
CN1c2ccccc2C(C)(C)C12CC(c1cccc(S(=O)(=O)N3CCCC3)c1)=NO2 (stereo not given) | 1.78 µM [rising, single point] | 2.24 µM [rising, partial curve]
CCCCCCCC1=Cc2ccccc2C(C(C(=O)OC)C(=O)OC)N1C(=O)OC (stereo not given) | 0.00282 µM [falling, full curve, poor fit] | 0.00316 µM [falling, full curve, poor fit]
COc1ccc(/C=N/Nc2nc(N3CCCCC3)nc(N3CCCCC3)n2)cc1[N+](=O)[O-] | 0.631 µM [rising, full curve, poor fit] | 0.708 µM [rising, full curve]
COc1cc(C(=O)N2CCCc3ccccc32)cc(OC)c1OC |  | 22.4 µM [rising, single point]
CCOC(=O)C1(CCc2ccccc2)CCN(Cc2cnc(N(C)C)s2)CC1 | 35.5 µM [falling, single point] | 
O=C(NC1CC(=O)N(c2ccc(Cl)cc2)C1)c1ccc(S(=O)(=O)N2CCOCC2)cc1 (stereo not given) | 0.355 µM [falling, full curve, poor fit] | 
CCCCOC(=O)c1ccc(Nc2nnc(-n3nc(C)cc3C)c3ccccc23)cc1 |  | 0.00316 µM [falling, full curve, poor fit]
CCOc1ccc(OCC)c(NC(=O)CSc2nnc(Cn3cnc4ccccc43)n2C)c1 |  | 35.5 µM [rising, single point]
Cc1ccc(Cl)cc1NC(=O)C1CCN(c2nc3ccccc3n3cccc23)CC1 | 25.1 µM [falling, partial curve] | 31.6 µM [falling, partial curve]
CCCc1nc(SCC(=O)Nc2nc3c(s2)CCCC3)c2ccccc2n1 | 35.5 µM [falling, single point] | 35.5 µM [falling, single point]
O=C(CSCc1ccc(F)cc1)Nc1nc2c(s1)CCCC2 |  | 11.2 µM [rising, partial curve, poor fit]
COc1cccc(-c2cc(C(=O)N3CCN(Cc4ccccc4)CC3)no2)c1 |  | 14.1 µM [rising, single point]
O=C(Cn1cnc2ccccc2c1=O)N1CCc2ccccc2C1 | 0.0224 µM [rising, full curve, poor fit] | 
O=C1CN(C(=O)COc2ccc(Br)cc2)c2ccccc2N1 |  | 5.01 µM [falling, full curve, poor fit]
CCCN(CCC)c1nc2ccccc2nc1C(C#N)C(=O)OCCOC (stereo not given) | 35.5 µM [rising, single point] | 
Cc1cnccc1CN(C)C(=O)CC1C(=O)NCCN1CC1CCCCC1 (stereo not given) | 17.8 µM [falling, partial curve, poor fit] | 17.8 µM [falling, partial curve, poor fit]
Cc1cccc(OCCN2C(=O)C(=O)c3cc(C)ccc32)c1 | 17.8 µM [falling, partial curve, poor fit] | 2.24 µM [falling, partial curve, poor fit]
CCOC(=O)c1ccc2c(c1)N(Cc1ccccc1C)C(=O)c1ccccc1S2=O (stereo not given) | 3.16 µM [rising, full curve, poor fit] | 10 µM [rising, partial curve]
O=S(=O)(Nc1ncnc2sc3c(c12)CCC3)c1ccc2ccccc2c1 | 14.1 µM [rising, single point] | 12.6 µM [rising, partial curve]
CC(C)Cn1c(N)c(C(=O)COC(=O)c2cc(-c3ccccc3)nc3ccccc23)c(=O)n(C)c1=O |  | 14.1 µM [rising, single point]
COc1ccccc1NS(=O)(=O)c1cc(NC(=O)/C=C/c2cccs2)ccc1N1CCOCC1 |  | 14.1 µM [rising, single point]
CC(C)c1ccc(OCc2cccc(C(=O)N/N=C/c3cccnc3)c2)cc1 |  | 0.251 µM [falling, full curve, poor fit]
CCCCCCNC(=O)n1cc(F)c(=O)[nH]c1=O | 14.1 µM [rising, partial curve, poor fit] | 0.1 µM [rising, full curve]
O=C(c1cc2ccccn2n1)N1CCN(c2cccc(C(F)(F)F)c2)CC1 | 3.98 µM [rising, full curve, poor fit] | 8.91 µM [rising, partial curve]
N=c1c2c3c(sc2ncn1Cc1ccccc1)CCCC3 | 11.2 µM [rising, partial curve] | 22.4 µM [rising, partial curve]
Nc1n[nH]c(-c2ccccc2)c1-c1ccccc1 | 35.5 µM [rising, single point] | 

Exported as a markdown table: two of the compounds above

| SMILES | AC50 [1] | AC50 [2] |
| --- | --- | --- |
| CCCCCCNC(=O)n1cc(F)c(=O)[nH]c1=O | 14.1 µM [rising, partial curve, poor fit] | 0.1 µM [rising, full curve] |
| O=C(c1cc2ccccn2n1)N1CCN(c2cccc(C(F)(F)F)c2)CC1 | 3.98 µM [rising, full curve, poor fit] | 8.91 µM [rising, partial curve] |
